Results: the supplement of paper PMC10849652
The other results are listed elsewhere or left out.

Amino acid sequences for entries named in this document (tags omitted). A change or cut given only in a name is not applied to a line headed by its entry.
UniProt Q92560: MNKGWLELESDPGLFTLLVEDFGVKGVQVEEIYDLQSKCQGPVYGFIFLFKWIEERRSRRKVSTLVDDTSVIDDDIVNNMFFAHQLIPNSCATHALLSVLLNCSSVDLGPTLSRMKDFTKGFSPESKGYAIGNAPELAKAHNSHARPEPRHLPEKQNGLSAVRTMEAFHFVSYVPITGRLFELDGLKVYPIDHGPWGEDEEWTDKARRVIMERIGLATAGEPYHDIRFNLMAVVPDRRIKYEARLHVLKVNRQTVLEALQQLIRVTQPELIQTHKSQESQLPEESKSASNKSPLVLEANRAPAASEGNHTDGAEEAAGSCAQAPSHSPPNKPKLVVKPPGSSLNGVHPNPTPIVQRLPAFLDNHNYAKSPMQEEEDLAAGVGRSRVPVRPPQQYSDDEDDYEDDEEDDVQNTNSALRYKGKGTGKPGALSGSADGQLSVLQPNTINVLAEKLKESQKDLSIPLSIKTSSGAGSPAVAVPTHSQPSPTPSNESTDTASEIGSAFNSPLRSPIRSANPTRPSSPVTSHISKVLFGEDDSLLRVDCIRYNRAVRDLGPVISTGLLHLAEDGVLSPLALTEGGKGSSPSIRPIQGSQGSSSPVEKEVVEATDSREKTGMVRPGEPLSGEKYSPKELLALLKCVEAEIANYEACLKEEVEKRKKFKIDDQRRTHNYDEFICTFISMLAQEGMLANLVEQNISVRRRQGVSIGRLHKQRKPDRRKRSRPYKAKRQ
UniProt P55957: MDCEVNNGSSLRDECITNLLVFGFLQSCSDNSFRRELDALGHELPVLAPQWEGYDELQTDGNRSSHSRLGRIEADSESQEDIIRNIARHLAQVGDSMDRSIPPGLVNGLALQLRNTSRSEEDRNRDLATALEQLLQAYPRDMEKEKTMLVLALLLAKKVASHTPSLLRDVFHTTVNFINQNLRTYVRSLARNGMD
UniProt P54687: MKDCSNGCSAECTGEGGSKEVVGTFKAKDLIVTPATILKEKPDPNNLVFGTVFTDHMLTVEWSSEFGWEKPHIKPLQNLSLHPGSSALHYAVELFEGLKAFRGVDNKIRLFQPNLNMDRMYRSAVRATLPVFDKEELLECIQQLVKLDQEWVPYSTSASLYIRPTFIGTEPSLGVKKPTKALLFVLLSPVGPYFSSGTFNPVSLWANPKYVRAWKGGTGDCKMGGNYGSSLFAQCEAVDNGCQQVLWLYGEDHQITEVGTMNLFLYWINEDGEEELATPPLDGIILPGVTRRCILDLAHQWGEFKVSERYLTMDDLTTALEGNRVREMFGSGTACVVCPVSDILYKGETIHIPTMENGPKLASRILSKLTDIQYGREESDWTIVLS
UniProt Q9UQB8: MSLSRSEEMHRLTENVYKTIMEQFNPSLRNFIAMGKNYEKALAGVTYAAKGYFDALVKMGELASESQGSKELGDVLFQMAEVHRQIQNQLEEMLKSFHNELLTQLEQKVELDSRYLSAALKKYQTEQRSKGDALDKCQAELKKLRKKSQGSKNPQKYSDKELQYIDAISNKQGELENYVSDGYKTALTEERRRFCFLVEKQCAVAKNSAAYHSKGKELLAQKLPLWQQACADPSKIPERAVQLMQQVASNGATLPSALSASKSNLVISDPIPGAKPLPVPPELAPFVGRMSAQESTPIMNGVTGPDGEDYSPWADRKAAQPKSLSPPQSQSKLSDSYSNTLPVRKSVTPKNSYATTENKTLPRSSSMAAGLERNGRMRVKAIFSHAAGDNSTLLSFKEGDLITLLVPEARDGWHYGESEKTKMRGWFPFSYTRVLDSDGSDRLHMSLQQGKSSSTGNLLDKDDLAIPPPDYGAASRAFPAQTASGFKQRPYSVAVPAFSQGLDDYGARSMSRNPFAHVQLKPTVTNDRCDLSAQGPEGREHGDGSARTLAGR
UniProt Q9NSY1, whole entry, looked up: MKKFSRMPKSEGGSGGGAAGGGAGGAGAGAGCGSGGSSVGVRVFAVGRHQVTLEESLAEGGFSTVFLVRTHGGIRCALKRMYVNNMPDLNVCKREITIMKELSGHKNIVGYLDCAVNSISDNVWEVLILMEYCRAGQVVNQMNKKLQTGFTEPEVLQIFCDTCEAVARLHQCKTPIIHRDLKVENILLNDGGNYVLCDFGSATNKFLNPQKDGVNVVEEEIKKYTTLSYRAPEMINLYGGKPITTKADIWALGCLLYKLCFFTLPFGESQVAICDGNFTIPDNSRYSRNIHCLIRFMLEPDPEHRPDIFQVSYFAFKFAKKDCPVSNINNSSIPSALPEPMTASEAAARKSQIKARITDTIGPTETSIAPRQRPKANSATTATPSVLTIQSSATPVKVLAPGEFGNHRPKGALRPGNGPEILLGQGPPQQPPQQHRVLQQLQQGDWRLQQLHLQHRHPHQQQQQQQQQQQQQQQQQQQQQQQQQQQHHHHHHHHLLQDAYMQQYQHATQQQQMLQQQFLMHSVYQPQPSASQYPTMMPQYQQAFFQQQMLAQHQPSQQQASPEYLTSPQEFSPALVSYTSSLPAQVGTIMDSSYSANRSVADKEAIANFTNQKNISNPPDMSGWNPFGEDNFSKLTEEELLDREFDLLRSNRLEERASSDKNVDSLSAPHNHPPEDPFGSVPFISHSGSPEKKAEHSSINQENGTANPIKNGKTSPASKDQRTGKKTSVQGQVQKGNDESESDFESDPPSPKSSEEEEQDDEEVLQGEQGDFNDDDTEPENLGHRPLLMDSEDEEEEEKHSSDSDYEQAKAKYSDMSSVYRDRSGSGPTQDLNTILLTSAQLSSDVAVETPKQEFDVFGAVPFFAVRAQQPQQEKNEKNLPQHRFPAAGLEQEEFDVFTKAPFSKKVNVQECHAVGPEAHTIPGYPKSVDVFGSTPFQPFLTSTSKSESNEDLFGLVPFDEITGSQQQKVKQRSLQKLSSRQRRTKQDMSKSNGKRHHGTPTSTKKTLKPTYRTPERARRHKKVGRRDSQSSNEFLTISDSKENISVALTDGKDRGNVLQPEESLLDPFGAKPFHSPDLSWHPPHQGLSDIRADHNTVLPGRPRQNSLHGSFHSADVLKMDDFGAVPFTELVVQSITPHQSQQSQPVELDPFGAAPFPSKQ
UniProt Q99933: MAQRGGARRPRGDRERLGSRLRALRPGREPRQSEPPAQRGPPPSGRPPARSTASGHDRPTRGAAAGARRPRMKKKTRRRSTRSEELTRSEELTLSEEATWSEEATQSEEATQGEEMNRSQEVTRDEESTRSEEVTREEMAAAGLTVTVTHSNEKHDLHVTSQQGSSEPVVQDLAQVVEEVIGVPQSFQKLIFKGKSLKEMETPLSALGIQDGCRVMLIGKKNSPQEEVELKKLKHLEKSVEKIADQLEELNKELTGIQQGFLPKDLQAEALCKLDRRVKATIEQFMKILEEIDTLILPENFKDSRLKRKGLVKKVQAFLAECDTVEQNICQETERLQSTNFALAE
UniProt Q9NYF8, whole entry, looked up: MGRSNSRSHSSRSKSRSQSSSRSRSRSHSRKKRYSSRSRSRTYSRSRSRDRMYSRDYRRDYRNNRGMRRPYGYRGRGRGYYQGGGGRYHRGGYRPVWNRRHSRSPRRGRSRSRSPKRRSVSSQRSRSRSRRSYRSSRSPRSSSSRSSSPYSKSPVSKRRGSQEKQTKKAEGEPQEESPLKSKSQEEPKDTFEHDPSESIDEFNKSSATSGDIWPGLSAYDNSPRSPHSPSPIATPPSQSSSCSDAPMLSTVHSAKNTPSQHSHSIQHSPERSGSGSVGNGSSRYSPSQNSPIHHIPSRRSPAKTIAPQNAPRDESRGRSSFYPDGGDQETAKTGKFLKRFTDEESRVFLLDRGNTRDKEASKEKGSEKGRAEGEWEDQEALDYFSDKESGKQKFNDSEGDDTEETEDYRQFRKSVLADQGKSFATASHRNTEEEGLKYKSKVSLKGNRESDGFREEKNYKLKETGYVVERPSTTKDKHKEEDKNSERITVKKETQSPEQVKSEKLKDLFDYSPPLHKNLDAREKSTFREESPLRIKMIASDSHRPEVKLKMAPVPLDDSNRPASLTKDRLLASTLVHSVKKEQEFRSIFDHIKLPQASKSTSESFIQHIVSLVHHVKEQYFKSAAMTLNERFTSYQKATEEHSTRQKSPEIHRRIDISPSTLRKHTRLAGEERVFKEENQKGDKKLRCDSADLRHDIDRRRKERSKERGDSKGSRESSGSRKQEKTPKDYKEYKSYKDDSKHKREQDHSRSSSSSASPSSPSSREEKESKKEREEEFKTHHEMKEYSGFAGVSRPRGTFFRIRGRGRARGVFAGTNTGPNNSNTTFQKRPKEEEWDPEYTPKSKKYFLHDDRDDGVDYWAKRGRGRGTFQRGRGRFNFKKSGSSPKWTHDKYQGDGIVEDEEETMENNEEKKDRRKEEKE
UniProt P35613: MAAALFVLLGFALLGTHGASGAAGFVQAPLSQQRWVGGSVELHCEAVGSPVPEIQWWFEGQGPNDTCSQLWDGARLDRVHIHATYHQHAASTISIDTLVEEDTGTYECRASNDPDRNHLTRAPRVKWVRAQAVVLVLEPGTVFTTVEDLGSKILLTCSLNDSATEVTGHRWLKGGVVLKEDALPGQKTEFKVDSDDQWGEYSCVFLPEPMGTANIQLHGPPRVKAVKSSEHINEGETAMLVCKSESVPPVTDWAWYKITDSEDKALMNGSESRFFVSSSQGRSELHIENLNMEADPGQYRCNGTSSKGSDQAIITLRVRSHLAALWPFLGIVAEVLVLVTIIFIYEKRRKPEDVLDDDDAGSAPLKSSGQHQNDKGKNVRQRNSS
UniProt O60512: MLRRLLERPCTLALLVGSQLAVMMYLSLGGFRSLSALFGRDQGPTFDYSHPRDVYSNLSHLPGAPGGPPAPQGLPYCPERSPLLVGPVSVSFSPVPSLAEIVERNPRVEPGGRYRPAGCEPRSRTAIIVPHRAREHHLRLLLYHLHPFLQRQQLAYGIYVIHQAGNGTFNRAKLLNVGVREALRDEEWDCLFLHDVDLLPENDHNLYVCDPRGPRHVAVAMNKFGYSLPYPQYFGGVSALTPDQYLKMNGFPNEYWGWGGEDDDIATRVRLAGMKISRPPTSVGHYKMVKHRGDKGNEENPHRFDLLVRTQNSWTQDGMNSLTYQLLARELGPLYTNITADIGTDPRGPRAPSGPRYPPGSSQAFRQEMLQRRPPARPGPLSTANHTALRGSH
UniProt Q9BQE9, whole entry, looked up: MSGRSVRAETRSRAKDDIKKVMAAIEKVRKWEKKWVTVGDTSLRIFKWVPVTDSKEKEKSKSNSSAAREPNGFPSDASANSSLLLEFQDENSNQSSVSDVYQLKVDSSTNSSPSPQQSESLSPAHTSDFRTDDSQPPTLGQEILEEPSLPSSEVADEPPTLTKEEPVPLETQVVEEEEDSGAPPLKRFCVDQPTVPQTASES
UniProt P12694: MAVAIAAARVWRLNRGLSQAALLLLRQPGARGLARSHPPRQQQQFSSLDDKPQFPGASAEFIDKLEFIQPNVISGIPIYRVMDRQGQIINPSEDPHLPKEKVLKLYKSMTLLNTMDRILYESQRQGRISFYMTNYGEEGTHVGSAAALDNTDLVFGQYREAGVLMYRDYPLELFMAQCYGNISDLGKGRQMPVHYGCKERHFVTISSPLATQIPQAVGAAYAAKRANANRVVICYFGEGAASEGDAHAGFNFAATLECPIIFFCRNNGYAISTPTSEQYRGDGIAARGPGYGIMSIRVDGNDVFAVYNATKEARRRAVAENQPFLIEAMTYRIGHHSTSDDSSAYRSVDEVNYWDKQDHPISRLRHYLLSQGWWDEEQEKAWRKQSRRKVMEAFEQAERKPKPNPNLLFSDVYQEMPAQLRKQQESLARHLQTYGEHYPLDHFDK
UniProt Q07817, whole entry, looked up: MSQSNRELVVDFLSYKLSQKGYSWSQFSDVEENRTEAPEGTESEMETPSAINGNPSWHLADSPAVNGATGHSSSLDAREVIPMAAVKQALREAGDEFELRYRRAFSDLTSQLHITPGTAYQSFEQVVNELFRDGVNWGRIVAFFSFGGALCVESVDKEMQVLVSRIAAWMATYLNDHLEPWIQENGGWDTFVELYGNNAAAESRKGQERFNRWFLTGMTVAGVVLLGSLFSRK
UniProt Q9Y276: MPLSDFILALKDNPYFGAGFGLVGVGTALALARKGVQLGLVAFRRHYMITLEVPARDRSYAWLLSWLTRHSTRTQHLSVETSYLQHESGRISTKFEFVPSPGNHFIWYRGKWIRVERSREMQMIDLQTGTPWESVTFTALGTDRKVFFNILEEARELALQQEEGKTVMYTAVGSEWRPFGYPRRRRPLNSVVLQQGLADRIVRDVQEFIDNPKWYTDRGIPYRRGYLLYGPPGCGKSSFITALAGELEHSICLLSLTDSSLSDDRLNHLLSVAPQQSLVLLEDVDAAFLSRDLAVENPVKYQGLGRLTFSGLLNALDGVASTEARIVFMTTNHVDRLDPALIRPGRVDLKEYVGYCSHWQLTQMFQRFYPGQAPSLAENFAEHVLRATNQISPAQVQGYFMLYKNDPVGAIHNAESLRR
UniProt Q8TDH9: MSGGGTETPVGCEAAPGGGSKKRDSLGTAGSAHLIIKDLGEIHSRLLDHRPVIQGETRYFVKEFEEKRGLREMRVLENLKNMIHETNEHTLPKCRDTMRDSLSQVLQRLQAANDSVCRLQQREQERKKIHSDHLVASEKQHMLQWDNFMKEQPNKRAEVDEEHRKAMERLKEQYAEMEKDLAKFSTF

Assays:
Test in all cases: log2 fold change, soluble protein after heating vs DMSO (PISA); higher = thermal stabilisation; K562 lysate, 10 uM; active = over 0.2 and 3.5 SD of the protein, either way, in both replicates (recomputed)
alvocidib = compound: CN1CC[C@H](c2c(O)cc(O)c3c(=O)cc(-c4ccccc4Cl)oc23)[C@H](O)C1 [alvocidib]
In short: (§1)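 To prepare the extract, K562 pellets were dounce-homogenised in PBS pH 7.4 with 1 mM MgCl2, giving crude material at 1 mg/mL protein. This was treated with 10 μM compound for 30 min, then heated in aliquots for 3 min over 48°C-58°C before pooling and addition of NP-40 to 0.5% at 4°C. Centrifugation at 21,000xg for 90 min left soluble protein in the supernatant, which TMTpro 16plex LC-MS/MS quantified with equalised channel sums. Results are log-two fold changes in thermal stability compared with solvent controls, from duplicates.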

Tubastatin A = compound: CN1CCc2c(c3ccccc3n2Cc2ccc(C(=O)NO)cc2)C1 [Tubastatin A]
In short: as §1

[1] = compound: CNC(=O)C1=CC=CC=C1NC2=NC(=NC=C2Cl)NC3=C(C=C(C=C3)N4CCOCC4)OC
In short: as §1

defactinib = compound: CNC(=O)c1ccc(Nc2ncc(C(F)(F)F)c(NCc3nccnc3N(C)S(C)(=O)=O)n2)cc1 [defactinib]
In short: as §1

[2] = compound: CNc1nc(-c2ccc3c(N)n[nH]c3c2)cc(N2C[C@@H](C(=O)NC3CCCCC3)CC[C@H]2C)n1
In short: as §1

encorafenib = compound: COC(=O)N[C@@H](C)CNc1nccc(-c2cn(C(C)C)nc2-c2cc(Cl)cc(NS(C)(=O)=O)c2F)n1 [encorafenib]
In short: as §1

[3] = compound: COC(=O)[C@H](CCSC)NC(=O)C1=C(C=C(C=C1)NC[C@H](CS)N)C2=CC=CC=C2
In short: as §1

alisertib = compound: COc1cc(Nc2ncc3c(n2)-c2ccc(Cl)cc2C(c2c(F)cccc2OC)=NC3)ccc1C(=O)O [alisertib]
In short: as §1

[4] = compound: COc1cc2nc(-c3cc(F)ccc3O)nc(N[C@@H]3CNC[C@H]3C(C)(C)O)c2cc1OC
In short: as §1

gefitinib = compound: COc1cc2ncnc(Nc3ccc(F)c(Cl)c3)c2cc1OCCCN1CCOCC1 [gefitinib]
In short: as §1

Measured: log2 fold change

BAP1 (UniProt Q92560)
inactive: alvocidib 0.008 | Tubastatin A -0.041 | [1] 0.006 | defactinib -0.011 | [2] -0.072 | encorafenib -0.007 | [3] 0.061 | alisertib -0.034 | [4] -0.006 | gefitinib 0.082

BAX isoform 2 (UniProt Q07812)
inactive: alvocidib -0.035 | Tubastatin A 0.038 | [1] 0.108 | defactinib 0.05 | [2] 0.055 | encorafenib 0.045 | [3] 0.011 | alisertib -0.011 | [4] -0.029 | gefitinib 0.032

BRI3BP (UniProt Q8WY22)
inactive: alvocidib -0.128 | Tubastatin A 0.091 | [1] -0.253 | defactinib -0.069 | [2] -0.002 | encorafenib 0.09 | [3] 0.09 | alisertib -0.179 | [4] -0.066 | gefitinib -0.055

BORCS5 (UniProt Q969J3)
inactive: alvocidib -0.012 | Tubastatin A 0.043 | [1] -0.001 | defactinib 0.067 | [2] 0.032 | encorafenib 0.074 | [3] -0.09 | alisertib -0.014 | [4] 0.01 | gefitinib -0.079

BID isoform 2 (UniProt P55957)
inactive: alvocidib -0.012 | Tubastatin A 0.026 | [1] 0.063 | defactinib 0.004 | [2] 0.089 | encorafenib -0.003 | [3] -0.043 | alisertib -0.009 | [4] -0.002 | gefitinib -0.041

BTAF1 (UniProt O14981)
inactive: alvocidib -0.001 | Tubastatin A -0.106 | [1] 0.021 | defactinib -0.013 | [2] 0 | encorafenib 0.021 | [3] 0.008 | alisertib 0.018 | [4] -0.008 | gefitinib 0.009

BCAT1 (UniProt P54687)
inactive: alvocidib -0.026 | Tubastatin A 0.041 | [1] -0.008 | defactinib -0.027 | [2] 0.054 | encorafenib 0.003 | [3] -0.022 | alisertib 0.026 | [4] 0.002 | gefitinib -0.006

BRD4 (UniProt O60885)
inactive: alvocidib -0.003 | Tubastatin A -0.001 | [1] 0.02 | defactinib -0.05 | [2] 0.036 | encorafenib 0 | [3] 0.03 | alisertib 0.038 | [4] -0.03 | gefitinib 0.034

BAIAP2 (UniProt Q9UQB8)
inactive: alvocidib 0.023 | Tubastatin A 0.038 | [1] -0.015 | defactinib -0.008 | [2] 0.02 | encorafenib 0.026 | [3] 0.022 | alisertib -0.013 | [4] -0.013 | gefitinib -0.019

BMP2K (UniProt Q9NSY1)
inactive: alvocidib -0.026 | Tubastatin A -0.151 | [1] 0.541 | defactinib 0.303 | [2] 0.376 | encorafenib -0.22 | [3] -0.199 | alisertib -0.001 | [4] -0.037 | gefitinib 0.066

BCCIP (UniProt Q9P287)
inactive: alvocidib 0.024 | Tubastatin A -0.012 | [1] 0.017 | defactinib 0.016 | [2] -0.017 | encorafenib 0.02 | [3] -0.016 | alisertib 0.003 | [4] -0.004 | gefitinib -0.009

BOP1 (UniProt Q14137)
inactive: alvocidib -0.007 | Tubastatin A -0.077 | [1] -0.007 | defactinib 0 | [2] -0.037 | encorafenib 0.021 | [3] 0.121 | alisertib -0.038 | [4] 0.015 | gefitinib 0.018

BAG1 (UniProt Q99933)
inactive: alvocidib -0.076 | Tubastatin A 0.043 | [1] 0.005 | defactinib -0.013 | [2] 0.392 | encorafenib -0.015 | [3] 0.012 | alisertib -0.012 | [4] 0.008 | gefitinib -0.018

BCLAF1 (UniProt Q9NYF8)
inactive: alvocidib -0.009 | Tubastatin A 0.055 | [1] -0.021 | defactinib -0.026 | [2] 0.043 | encorafenib 0.015 | [3] 0.025 | alisertib -0.048 | [4] -0.005 | gefitinib 0.058

2 entries picked at random from those above, as already listed:
BID isoform 2 (UniProt P55957)
inactive: alvocidib -0.012 | Tubastatin A 0.026 | [1] 0.063 | defactinib 0.004 | [2] 0.089 | encorafenib -0.003 | [3] -0.043 | alisertib -0.009 | [4] -0.002 | gefitinib -0.041

BCLAF1 (UniProt Q9NYF8)
inactive: alvocidib -0.009 | Tubastatin A 0.055 | [1] -0.021 | defactinib -0.026 | [2] 0.043 | encorafenib 0.015 | [3] 0.025 | alisertib -0.048 | [4] -0.005 | gefitinib 0.058

More records

BNIP2 (UniProt J3KN59)
inactive: alvocidib -0.016 | Tubastatin A -0.087 | [1] 0.022 | defactinib -0.003 | [2] -0.041 | encorafenib -0.057 | [3] 0.011 | alisertib -0.15 | [4] -0.038 | gefitinib -0.207

BSG (UniProt P35613)
inactive: alvocidib 0.017 | Tubastatin A 0.022 | [1] -0.023 | defactinib -0.034 | [2] -0.018 | encorafenib 0.033 | [3] -0.041 | alisertib 0.018 | [4] -0.001 | gefitinib 0.029

BCL2L12 (UniProt Q9HB09)
inactive: alvocidib 0.012 | Tubastatin A 0.016 | [1] -0.087 | defactinib 0.113 | [2] -0.059 | encorafenib -0.207 | [3] 0.023 | alisertib 0.008 | [4] 0.1 | gefitinib -0.062

BTF3L4 (UniProt Q96K17)
inactive: alvocidib -0.044 | Tubastatin A 0.033 | [1] 0.003 | defactinib 0.028 | [2] 0.038 | encorafenib -0.016 | [3] -0.032 | alisertib 0.021 | [4] -0.01 | gefitinib -0.005

BRAP (UniProt Q7Z569)
inactive: alvocidib -0.024 | Tubastatin A -0.012 | [1] 0.012 | defactinib -0.022 | [2] 0.029 | encorafenib 0.014 | [3] -0.025 | alisertib -0.019 | [4] 0.004 | gefitinib -0.02

BLVRA (UniProt P53004)
inactive: alvocidib 0.004 | Tubastatin A 0.026 | [1] 0.011 | defactinib -0.032 | [2] -0.013 | encorafenib -0.034 | [3] -0.038 | alisertib 0.023 | [4] 0.005 | gefitinib -0.033

B4GALT3 (UniProt O60512)
inactive: alvocidib 0.038 | Tubastatin A 0.015 | [1] 0.02 | defactinib -0.045 | [2] -0.114 | encorafenib 0.128 | [3] 0.17 | alisertib 0.09 | [4] -0.031 | gefitinib 0.01

BST2 (UniProt Q10589)
inactive: alvocidib -0.018 | Tubastatin A 0.014 | [1] -0.007 | defactinib -0.037 | [2] -0.072 | encorafenib 0.011 | [3] -0.056 | alisertib 0.001 | [4] 0.04 | gefitinib 0.006

BCL7B (UniProt Q9BQE9)
inactive: alvocidib 0.145 | Tubastatin A -0.034 | [1] -0.077 | defactinib 0 | [2] -0.013 | encorafenib 0.066 | [3] -0.038 | alisertib 0.006 | [4] -0.003 | gefitinib 0.049

BCKDHA (UniProt P12694)
inactive: alvocidib 0.025 | Tubastatin A -0.059 | [1] 0.058 | defactinib -0.007 | [2] 0.144 | encorafenib 0.01 | [3] -0.093 | alisertib -0.013 | [4] 0.026 | gefitinib 0.166

BCL2L1 (UniProt Q07817)
inactive: alvocidib -0.045 | Tubastatin A -0.004 | [1] -0.002 | defactinib -0.01 | [2] 0.03 | encorafenib 0.052 | [3] -0.059 | alisertib 0 | [4] 0.007 | gefitinib 0.013

BCOR (UniProt Q6W2J9)
inactive: alvocidib -0.108 | Tubastatin A -0.132 | [1] -0.016 | defactinib -0.386 | [2] 0.013 | encorafenib 0.026 | [3] 0.191 | alisertib -0.034 | [4] 0.105 | gefitinib 0.106

BAZ1B (UniProt Q9UIG0)
inactive: alvocidib -0.044 | Tubastatin A -0.055 | [1] -0.043 | defactinib 0.019 | [2] 0.012 | encorafenib 0.074 | [3] 0.128 | alisertib 0.012 | [4] -0.013 | gefitinib -0.04

BCS1L (UniProt Q9Y276)
inactive: alvocidib -0.034 | Tubastatin A 0.081 | [1] 0.011 | defactinib -0.034 | [2] -0.161 | encorafenib 0 | [3] 0.109 | alisertib 0.021 | [4] 0.018 | gefitinib 0.017

BRD2 isoform 2 (UniProt P25440)
inactive: alvocidib 0.06 | Tubastatin A 0.002 | [1] 0.059 | defactinib -0.187 | [2] 0.068 | encorafenib 0.084 | [3] -0.118 | alisertib 0 | [4] 0.019 | gefitinib -0.009

BLOC1S5 (UniProt Q8TDH9)
inactive: alvocidib -0.03 | Tubastatin A 0.037 | [1] 0.047 | defactinib 0.015 | [2] 0.048 | encorafenib -0.011 | [3] -0.031 | alisertib 0.038 | [4] -0.01 | gefitinib -0.061
